Literature values in patent US7772273B2 (LifeCycle Pharma A/S, priority 2006, dated 2010).

What was measured:
[1] = At pH>6

Question: For `CC(C)c1c(C(=O)Nc2ccccc2)c(-c2ccccc2)c(-c2ccc(F)cc2)n1CCC(O)CC(O)CC(=O)O` (stereo not drawn) [atorvastatin, 2-(4-fluorophenyl)-β,δ-dihydroxy-5-(1-methylethyl)-3-phenyl-4-[(phenylamino)carbonyl]-1H-pyrrole-1-heptanoic acid], which “Hydroxy acid form-lactone form equilibrium” value [1] is on record?
Answer: greatly favors the hydroxy acid form

Question: What about the “Lowering of plasma atorvastatin concentrations (Cmax and AUC)” value (evening drug administration compared with morning) of the same compound?
Answer: approximately 30%

Question: And the “Decrease of extent of drug absorption by food, as assessed by AUC” value (with food)?
Answer: ~9%

Question: What about the “Decrease of rate of drug absorption by food, as assessed by Cmax” value (with food) of the same compound?
Answer: approximately 25%
